Test results: paper PMC11519604, “TOX2 nuclear-cytosol translocation is linked to leukemogenesis of acute T-cell leukemia by repressing TIM3 transcription” (Cell Death and Differentiation, 2024)

T1: TOX-Flag (full-length TOX) (UniProt O94900)
T1 sequence: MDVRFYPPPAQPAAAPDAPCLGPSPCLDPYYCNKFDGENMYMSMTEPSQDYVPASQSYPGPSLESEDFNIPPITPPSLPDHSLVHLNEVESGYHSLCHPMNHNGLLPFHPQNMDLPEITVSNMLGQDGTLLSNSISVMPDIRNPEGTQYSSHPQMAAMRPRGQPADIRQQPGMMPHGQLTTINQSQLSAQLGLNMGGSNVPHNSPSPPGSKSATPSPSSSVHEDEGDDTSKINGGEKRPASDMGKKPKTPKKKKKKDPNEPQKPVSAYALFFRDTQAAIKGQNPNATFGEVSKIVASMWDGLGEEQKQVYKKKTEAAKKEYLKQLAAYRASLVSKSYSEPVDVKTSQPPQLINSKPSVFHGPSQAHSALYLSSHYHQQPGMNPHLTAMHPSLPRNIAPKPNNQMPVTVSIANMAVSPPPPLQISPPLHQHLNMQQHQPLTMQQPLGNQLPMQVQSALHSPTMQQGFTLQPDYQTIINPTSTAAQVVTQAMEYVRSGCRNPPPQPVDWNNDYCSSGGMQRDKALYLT


What was measured:
[1] = target: T1, TOX-Flag (full-length TOX); test: co-IP; exogenous co-IP in HEK293T cells co-transfected with full-length TOX, TOX-Flag or TOX2-HA and truncated TOX or TOX2 plasmids; Co-IP kit lysis buffer, antibody overnight at 4 °C, protein A/G beads
[2] = target: TOX2-HA (full-length TOX2); test: as above

| Molecule | binding [1] | binding [2] |
| --- | --- | --- |
| TOX2-HA (full-length TOX2) | binds |  |
| TOX2(C)-Flag (311–506) (domain or fragment) | no binding |  |
| TOX2(N)-Flag (1–246) (domain or fragment) | no binding |  |
| TOX(N)-His (1–360) (domain or fragment, UniProt O94900 1-360) MDVRFYPPPAQPAAAPDAPCLGPSPCLDPYYCNKFDGENMYMSMTEPSQDYVPASQSYPGPSLESEDFNIPPITPPSLPDHSLVHLNEVESGYHSLCHPMNHNGLLPFHPQNMDLPEITVSNMLGQDGTLLSNSISVMPDIRNPEGTQYSSHPQMAAMRPRGQPADIRQQPGMMPHGQLTTINQSQLSAQLGLNMGGSNVPHNSPSPPGSKSATPSPSSSVHEDEGDDTSKINGGEKRPASDMGKKPKTPKKKKKKDPNEPQKPVSAYALFFRDTQAAIKGQNPNATFGEVSKIVASMWDGLGEEQKQVYKKKTEAAKKEYLKQLAAYRASLVSKSYSEPVDVKTSQPPQLINSKPSVFH |  | binds |
| TOX(C)-His (257–526) (domain or fragment, UniProt O94900 257-526) DPNEPQKPVSAYALFFRDTQAAIKGQNPNATFGEVSKIVASMWDGLGEEQKQVYKKKTEAAKKEYLKQLAAYRASLVSKSYSEPVDVKTSQPPQLINSKPSVFHGPSQAHSALYLSSHYHQQPGMNPHLTAMHPSLPRNIAPKPNNQMPVTVSIANMAVSPPPPLQISPPLHQHLNMQQHQPLTMQQPLGNQLPMQVQSALHSPTMQQGFTLQPDYQTIINPTSTAAQVVTQAMEYVRSGCRNPPPQPVDWNNDYCSSGGMQRDKALYLT |  | binds |
| TOX-Flag (full-length TOX) (natural protein, UniProt O94900 1-526, looked up, TOX, full length (526 residues by the printed limits of TOX(C) 257-526), in pCDH vector; Both are written as this one molecule; source: HEK293T, transfected, in lysate; not shown: Flag, C-terminal, kept) MDVRFYPPPAQPAAAPDAPCLGPSPCLDPYYCNKFDGENMYMSMTEPSQDYVPASQSYPGPSLESEDFNIPPITPPSLPDHSLVHLNEVESGYHSLCHPMNHNGLLPFHPQNMDLPEITVSNMLGQDGTLLSNSISVMPDIRNPEGTQYSSHPQMAAMRPRGQPADIRQQPGMMPHGQLTTINQSQLSAQLGLNMGGSNVPHNSPSPPGSKSATPSPSSSVHEDEGDDTSKINGGEKRPASDMGKKPKTPKKKKKKDPNEPQKPVSAYALFFRDTQAAIKGQNPNATFGEVSKIVASMWDGLGEEQKQVYKKKTEAAKKEYLKQLAAYRASLVSKSYSEPVDVKTSQPPQLINSKPSVFHGPSQAHSALYLSSHYHQQPGMNPHLTAMHPSLPRNIAPKPNNQMPVTVSIANMAVSPPPPLQISPPLHQHLNMQQHQPLTMQQPLGNQLPMQVQSALHSPTMQQGFTLQPDYQTIINPTSTAAQVVTQAMEYVRSGCRNPPPQPVDWNNDYCSSGGMQRDKALYLT |  | binds |
| TOX(C2)-Myc (361–526) (domain or fragment, UniProt O94900 361-526) GPSQAHSALYLSSHYHQQPGMNPHLTAMHPSLPRNIAPKPNNQMPVTVSIANMAVSPPPPLQISPPLHQHLNMQQHQPLTMQQPLGNQLPMQVQSALHSPTMQQGFTLQPDYQTIINPTSTAAQVVTQAMEYVRSGCRNPPPQPVDWNNDYCSSGGMQRDKALYLT |  | no binding |

No constants are given. Whether binding was seen depends on the method and setting. Binding seen in cells or lysates may run through a third protein. Binding can be weak; no strength is given. Tags and fused reporters may be left off the sequences shown.
